The text below walks through data of paper PMC8058163 (Clinical pharmacology and therapeutics, 2020).

The conditions of series [1]: both, human, in vivo.
A short description of series [2]: clinical. Conditions: both, human, in vivo.

For the compound `NS(=O)(=O)c1cc(C(=O)O)c(NCc2ccco2)cc1Cl` [Furosemide, furosemide], in series [1], the “AUC0–6, goldenseal exposure / baseline ratio” value is 1.05 [0.96–1.15]; the “ClR, goldenseal exposure / baseline ratio” value was 1.00 [0.91–1.09]; the “Cmax, goldenseal exposure / baseline ratio” value was 1.06 [0.92–1.22]. In series [2], the exposure AUC(0-t) was found to be 0.18 µM·h, the CL renal was 122 mL/min and the Cmax came out at 110 nM. Further, in series [2] (po), the AUC(0-t) worked out at 0.17 µM·h, the CL renal is 122 mL/min and the peak level (Cmax) was 100 nM.

The term AUC(0-t) denotes exposure summed from dosing to a finite time, without extrapolation to infinity. Low values mean low exposure, high ones high exposure. The Cmax is the peak of the concentration-time curve.
